From article PMC5794190
No constants are given. Whether binding was seen depends on the method and setting. In cells and extracts the contact can be indirect. Some results given as binding are weak or reduced against the parent protein; the word gives no strength.

Protein sequences, listed by entry. Tags and fused reporters are not part of them. Residues count along the entry.
UniProt P03186, residues 1-235: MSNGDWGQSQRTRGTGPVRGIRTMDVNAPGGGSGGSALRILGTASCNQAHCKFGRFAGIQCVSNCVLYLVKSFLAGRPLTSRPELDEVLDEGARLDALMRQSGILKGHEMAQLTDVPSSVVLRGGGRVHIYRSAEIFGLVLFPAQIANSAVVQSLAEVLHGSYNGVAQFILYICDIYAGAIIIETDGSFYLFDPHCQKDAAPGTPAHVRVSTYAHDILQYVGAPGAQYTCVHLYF

B1: RIG-I (endogenous), O95786 1-925 (protein)
chain: MTTEQRRSLQAFQDYIRKTLDPTYILSYMAPWFREEEVQYIQAEKNNKGPMEAATLFLKFLLELQEEGWFRGFLDALDHAGYSGLYEAIESWDFKKIEKLEEYRLLLKRLQPEFKTRIIPTDIISDLSECLINQECEEILQICSTKGMMAGAEKLVECLLRSDKENWPKTLKLALEKERNKFSELWIVEKGIKDVETEDLEDKMETSDIQIFYQEDPECQNLSENSCPPSEVSDTNLYSPFKPRNYQLELALPAMKGKNTIICAPTGCGKTFVSLLICEHHLKKFPQGQKGKVVFFANQIPVYEQQKSVFSKYFERHGYRVTGISGATAENVPVEQIVENNDIIILTPQILVNNLKKGTIPSLSIFTLMIFDECHNTSKQHPYNMIMFNYLDQKLGGSSGPLPQVIGLTASVGVGDAKNTDEALDYICKLCASLDASVIATVKHNLEELEQVVYKPQKFFRKVESRISDKFKYIIAQLMRDTESLAKRICKDLENLSQIQNREFGTQKYEQWIVTVQKACMVFQMPDKDEESRICKALFLYTSHLRKYNDALIISEHARMKDALDYLKDFFSNVRAAGFDEIEQDLTQRFEEKLQELESVSRDPSNENPKLEDLCFILQEEYHLNPETITILFVKTRALVDALKNWIEGNPKLSFLKPGILTGRGKTNQNTGMTLPAQKCILDAFKASGDHNILIATSVADEGIDIAQCNLVILYEYVGNVIKMIQTRGRGRARGSKCFLLTSNAGVIEKEQINMYKEKMMNDSILRLQTWDEAVFREKILHIQTHEKFIRDSQEKPKPVPDKENKKLLCRKCKALACYTADVRVIEECHYTVLGDAFKECFVSRPHPKPKQFSSFEKRAKIFCARQNCSHDWGIHVKYKTFEIPVIKIESFVVEDIATGVQTLYSKWKDFHFEKIPFDPAEMSK
B2: RIG-I (endogenous) (protein, UniProt O95786 1-925)
chain: B1 chain
B3: 14-3-3η (protein, UniProt Q04917 1-246)
chain: MGDREQLLQRARLAEQAERYDDMASAMKAVTELNEPLSNEDRNLLSVAYKNVVGARRSSWRVISSIEQKTMADGNEKKLEKVKAYREKIEKELETVCNDVLSLLDKFLIKNCNDFQYESKVFYLKMKGDYYRYLAEVASGEKKNSVVEASEAAYKEAFEISKEQMQPTHPIRLGLALNFSVFYYEIQNAPEQACLLAKQAFDDAIAELDTLNEDSYKDSTLIMQLLRDNLTLWTSDQQDEEAGEGN
B4: 14-3-3γ (protein, UniProt P61981 1-247)
chain: MVDREQLVQKARLAEQAERYDDMAAAMKNVTELNEPLSNEERNLLSVAYKNVVGARRSSWRVISSIEQKTSADGNEKKIEMVRAYREKIEKELEAVCQDVLSLLDNYLIKNCSETQYESKVFYLKMKGDYYRYLAEVATGEKRATVVESSEKAYSEAHEISKEHMQPTHPIRLGLALNYSVFYYEIQNAPEQACHLAKTAFDDAIAELDTLNEDSYKDSTLIMQLLRDNLTLWTSDQQDDDGGEGNN

Key:
[1] = target: TRIM25 ubiquitin ligase (endogenous) (human (endogenous in HeLa, U2OS, HEK293T)), Q14258; assay: co-IP; endogenous TRIM25 immunoprecipitated with anti-TRIM25 antibody and protein-G Sepharose from lysates of HeLa cells transfected with FLAG-tagged plasmids, western blot; for RIG-I the cells were co-transfected with GST-2CARD; details: remark: other sources report otherwise
[2] = target: FLAG-BPLF1 (aa 1-235), catalytically active N-terminal domain of BPLF1 (Epstein-Barr virus) (UniProt P03186); assay: co-IP; told only in the discussion: RIG-I looked for in the BPLF1:14-3-3:TRIM25 complex (Fig 4); which immunoprecipitate was probed is not told
[3] = target: FLAG-BPLF1 (aa 1-235), catalytically active N-terminal domain of BPLF1 (Epstein-Barr virus) (UniProt P03186); assay: co-IP; anti-FLAG agarose on lysates of transfected HeLa, U2OS or HEK293T cells (NP-40 lysis buffer), elution with 3xFLAG peptide, western blot; in Fig 7A with co-transfected HA-TRIM25, in Fig 5C with co-transfected HA- and FLAG-TRIM25

| Binder | binding [3] | further results |
| --- | --- | --- |
| B1 | – | binding [1]: binds |
| B2 | – | binding [2]: no binding |
| B3 | binds | – |
| B4 | binds | – |
